Test results from PMC6453936.
Results are given in words; binding and its absence hold for the method and conditions named. In cells and extracts the contact can be indirect. For some assays here: Binding calls can cover weak binding; strength is not graded here.

Chains of the proteins cited; added tags and fusions are not shown. Lines headed by an entry give the natural chain unless they say otherwise; changes in a name come on top.
UniProt Q15075: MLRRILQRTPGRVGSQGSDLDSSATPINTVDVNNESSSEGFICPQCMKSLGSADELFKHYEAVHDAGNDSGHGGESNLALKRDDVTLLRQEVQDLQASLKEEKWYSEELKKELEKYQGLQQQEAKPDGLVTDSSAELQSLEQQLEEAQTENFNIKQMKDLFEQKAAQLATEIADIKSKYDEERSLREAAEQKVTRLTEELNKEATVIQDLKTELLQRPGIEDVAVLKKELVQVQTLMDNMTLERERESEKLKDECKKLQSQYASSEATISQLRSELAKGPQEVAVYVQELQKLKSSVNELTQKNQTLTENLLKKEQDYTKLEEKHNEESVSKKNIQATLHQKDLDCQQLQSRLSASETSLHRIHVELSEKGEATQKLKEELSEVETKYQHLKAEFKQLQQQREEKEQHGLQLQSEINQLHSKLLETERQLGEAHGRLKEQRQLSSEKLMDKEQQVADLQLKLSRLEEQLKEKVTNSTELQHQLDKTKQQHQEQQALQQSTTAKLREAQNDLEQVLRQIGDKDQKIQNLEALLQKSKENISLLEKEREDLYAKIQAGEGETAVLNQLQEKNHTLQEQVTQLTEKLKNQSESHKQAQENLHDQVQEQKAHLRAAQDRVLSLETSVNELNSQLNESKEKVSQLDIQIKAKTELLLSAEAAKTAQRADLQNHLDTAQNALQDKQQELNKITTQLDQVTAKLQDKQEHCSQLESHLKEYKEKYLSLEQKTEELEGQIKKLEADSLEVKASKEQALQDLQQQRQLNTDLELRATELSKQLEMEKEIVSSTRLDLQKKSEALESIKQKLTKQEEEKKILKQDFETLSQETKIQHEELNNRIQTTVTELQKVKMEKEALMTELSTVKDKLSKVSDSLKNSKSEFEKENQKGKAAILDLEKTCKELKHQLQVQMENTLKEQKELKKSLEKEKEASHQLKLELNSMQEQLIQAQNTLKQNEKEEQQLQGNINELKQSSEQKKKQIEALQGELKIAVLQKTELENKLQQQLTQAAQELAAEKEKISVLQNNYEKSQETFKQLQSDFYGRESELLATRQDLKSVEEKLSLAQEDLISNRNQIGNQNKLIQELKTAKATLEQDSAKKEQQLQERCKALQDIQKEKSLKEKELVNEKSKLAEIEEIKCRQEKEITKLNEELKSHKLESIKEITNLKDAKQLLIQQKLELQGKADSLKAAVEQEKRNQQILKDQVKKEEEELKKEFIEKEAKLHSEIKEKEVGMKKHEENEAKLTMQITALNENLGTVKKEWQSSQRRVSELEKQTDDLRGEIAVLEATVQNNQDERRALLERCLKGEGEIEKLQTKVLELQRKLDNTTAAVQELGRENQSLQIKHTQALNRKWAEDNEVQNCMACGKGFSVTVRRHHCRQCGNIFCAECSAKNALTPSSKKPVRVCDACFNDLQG
UniProt P29466: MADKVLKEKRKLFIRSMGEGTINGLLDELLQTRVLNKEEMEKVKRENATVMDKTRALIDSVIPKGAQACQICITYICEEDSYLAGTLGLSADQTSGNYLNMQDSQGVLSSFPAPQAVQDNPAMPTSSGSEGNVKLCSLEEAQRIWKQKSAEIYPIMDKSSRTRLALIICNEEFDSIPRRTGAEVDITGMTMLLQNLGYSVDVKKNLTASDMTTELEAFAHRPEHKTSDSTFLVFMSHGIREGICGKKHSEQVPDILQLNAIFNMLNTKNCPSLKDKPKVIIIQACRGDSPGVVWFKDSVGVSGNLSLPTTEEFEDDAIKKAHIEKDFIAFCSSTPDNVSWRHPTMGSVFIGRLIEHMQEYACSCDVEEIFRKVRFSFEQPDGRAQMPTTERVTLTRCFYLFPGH

Legend:
[1] = molecular target: early endosome autoantigen 1 (EEA1) (human (endogenous in THP-1)) (UniProt Q15075); assay: co-IP; as a1, but the THP-1 cells were stimulated with a caspase-1 inhibitor present
[2] = molecular target: early endosome autoantigen 1 (EEA1) (human (endogenous in THP-1)) (UniProt Q15075); assay: co-IP; anti-EEA1 (1.5 µg, 1 h, 4 °C), then protein-G-agarose beads, from cell supernatants of LPS-primed THP-1 macrophages after NLRP3 stimulation with hypotonicity; normal mouse IgG1 as control; blot for caspase-1 p10

How did the binding [1] turn out when “p10 subunit of active caspase-1 (from UniProt P29466) (enzyme)” was run?
The binding was “no binding (only with a caspase-1 inhibitor)”.

And the binding [2]?
Its binding is “binds”.
